From PubChem BioAssay AID2417 (National Center for Advancing Translational Sciences (NCATS), 2010)
The campaign covered roughly 140,000 compounds. About 4,300 (3.1%) were called active. The inconclusive results got no clear call from the source; some entries with a clear call stand among them for comparison.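 How the source made its calls: active means readout at or below -70, meaning at least 70% loss of cells showing the perinucleolar compartment, a nuclear body marking cancer cells; inconclusive means readout between -30 and a set limit; inactive means the rest.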

Assay: High Content Assay for Compounds that inhibit the Assembly of the Perinucleolar Compartment;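 further: plate controls were DMSO wells for no effect and camptothecin positive control wells for full effect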
Settings: PC3M PTB-GFP, PNC prevalence imaging, 16 h; at 10 µM; active compounds read low
Outline: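 Compounds are pinned in duplicate onto adhered PC3M cells stably expressing GFP-tagged PTB and incubated 16 h at 37 C. Cells are then fixed, nuclei stained with Hoechst, and PNC-positive cells counted.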
In the case of `CC1CCN(S(=O)(=O)c2ccc(C(=O)Nc3ccccc3-c3nc4ccccc4[nH]3)cc2)CC1`, the activity change (PNC), negative = inhibition is reported as inactive: 1.82%. For `OC(c1ccccc1)C1CN(Cc2ccccc2)CCC1(O)c1ccccc1` (configuration not stated), the activity change (PNC), negative = inhibition was inactive: 11.2%. For `Cc1nnc(SCC(=O)N2CCOCC2)n1C`, the activity change (PNC), negative = inhibition was inconclusive: -38%. For `O=C(CCCC(=O)OCC(=O)NC1CCCC1)Nc1ccccn1`, the activity change (PNC), negative = inhibition was inconclusive: -45.6%. In the case of `Cc1ccc(C(=O)NCCSCc2ccc(Cl)cc2Cl)cc1[N+](=O)[O-]`, the activity change (PNC), negative = inhibition is reported as inactive: -11.6%. In the case of `O=C(C1CCCN(S(=O)(=O)c2ccc(Cl)cc2)C1)N(Cc1cccs1)C1CC1` (configuration not stated), the activity change (PNC), negative = inhibition is reported as inconclusive: -79.2%. For `N/C(=N\OC(=O)Cc1ccc(Cl)cc1)c1cccnc1`, the activity change (PNC), negative = inhibition was inconclusive: -41%. For `CCN(Cc1ccccc1)c1ccc(/C=C(\C#N)c2ccccn2)cc1`, the activity change (PNC), negative = inhibition was inconclusive: -36.3%. For `O=C(c1ccc(S(=O)(=O)N2CCOCC2)cc1)N1CCN(C2=NS(=O)(=O)c3ccccc32)CC1`, the activity change (PNC), negative = inhibition was inconclusive: -40.2%. For `CCOCc1nnc(NC(=O)CSc2ccccc2)s1`, the activity change (PNC), negative = inhibition was inconclusive: -56.7%. For `O=C(Nc1nnc(-c2ccc3c(c2)CCCC3)o1)c1ccccc1`, the activity change (PNC), negative = inhibition was inactive: 7.22%. With `CCOC(=O)c1c(-c2ccncc2)csc1N` the activity change (PNC), negative = inhibition was inconclusive: -31.1%. With `O=C(O)Cc1ccc2c(c1)N(S(=O)(=O)c1cccc(C(F)(F)F)c1)CC(C(=O)O)O2` (configuration not stated) the activity change (PNC), negative = inhibition was inactive: 17.5%. For `N#Cc1c(SCC(=O)OCc2ccccc2)nsc1SCC(=O)OCc1ccccc1`, the activity change (PNC), negative = inhibition was active: -101%. For `CCc1c(C)sc(NC(=O)c2cnn3cccnc23)c1C#N`, the activity change (PNC), negative = inhibition was inconclusive: -31.8%. For `COc1ccc(C(=O)Nc2ccc3c(c2)Cc2ccccc2-3)cc1`, the activity change (PNC), negative = inhibition was inconclusive: -33.7%. For `COc1ccccc1NC(=O)N1CCN(c2cccc(C(F)(F)F)c2)CC1`, the activity change (PNC), negative = inhibition was inconclusive: -34.1%. With `CC12CN(Cc3ccccc3)CC(C)(CN(Cc3ccccc3)C1)C2=NO` the activity change (PNC), negative = inhibition was inconclusive: -37.3%. For `COc1ccccc1N1CCN(C(=O)c2ccc3nc(-c4ccco4)c(-c4ccco4)nc3c2)CC1`, the activity change (PNC), negative = inhibition was inactive: 22.9%. In the case of `CCOC(=O)Cn1c(=N)n(Cc2ccccc2)c2ccccc21`, the activity change (PNC), negative = inhibition is reported as inactive: 1.56%. For `O=[N+]([O-])c1cc(-c2nnc(-c3ccccc3)o2)ccc1Oc1ccc(Cl)cc1`, the activity change (PNC), negative = inhibition was inconclusive: -45.5%. For `CC(C(=O)NC(=O)NC1CCCCC1)N1CCN(C(c2ccccc2)c2ccccc2)CC1` (configuration not stated), the activity change (PNC), negative = inhibition was inactive: 26.5%. In the case of `CCCCOP(=O)(OCCCC)C1(NS(=O)(=O)c2ccccc2)C=CC(=O)c2ccccc21` (configuration not stated), the activity change (PNC), negative = inhibition is reported as inconclusive: -46.1%. In the case of `O=C1c2cc(S(=O)(=O)NCCCO)ccc2-c2ccc(S(=O)(=O)NCCCO)cc21`, the activity change (PNC), negative = inhibition is reported as inconclusive: -33.8%. With `CCOC(=O)/C(=C\Nc1ccc(OC(F)(F)F)cc1)Sc1ncc(C(F)(F)F)cc1Cl` the activity change (PNC), negative = inhibition was inconclusive: -44.7%. For `O=C(COc1ccc(Cl)cc1Cl)NCCCn1ccnc1`, the activity change (PNC), negative = inhibition was inconclusive: -34%. With `CCC(C)(C)NC(=O)C(c1ccncc1)N(Cc1ccc(C)cc1)C(=O)c1csnn1` (configuration not stated) the activity change (PNC), negative = inhibition was inconclusive: -32.6%. With `Cc1cc(NC(=O)CSc2nc(CC(C)(C)C)nc3c2c(=O)n(C)c(=O)n3C)no1` the activity change (PNC), negative = inhibition was inactive: -23.5%. For `CCOc1cc(C2Nc3ccccc3C(=O)N2c2ccccc2)ccc1O` (configuration not stated), the activity change (PNC), negative = inhibition was inconclusive: -40.9%. In the case of `COc1ccc2c(-c3ccccc3)cc(SCC(=O)NC3CCS(=O)(=O)C3)nc2c1` (configuration not stated), the activity change (PNC), negative = inhibition is reported as inconclusive: -38.8%. With `N#Cc1c(NC(=O)CCn2cnc3ccccc3c2=O)oc(-c2ccccc2)c1-c1ccccc1` the activity change (PNC), negative = inhibition was inconclusive: -34.2%. With `COc1ccc(C)cc1S(=O)(=O)N1CCCCC1` the activity change (PNC), negative = inhibition was inconclusive: -32%. For `NNC(=O)CSc1cccc2cccnc12`, the activity change (PNC), negative = inhibition was inconclusive: -43.5%. For `O=C1c2ccccc2C(=O)N1c1cccc2cccnc12`, the activity change (PNC), negative = inhibition was inconclusive: -43.1%. With `CCOC(=O)CSc1nnc(-c2cccnc2)n1Cc1ccccc1` the activity change (PNC), negative = inhibition was inconclusive: -37.7%. With `CC(=O)c1nn(-c2cccc(Br)c2)cc1C(=O)c1ccc(Cl)cc1` the activity change (PNC), negative = inhibition was inactive: 26.2%. In the case of `COc1ccc(NC(=O)Cc2c(F)cccc2Cl)c(OC)c1`, the activity change (PNC), negative = inhibition is reported as inconclusive: -53.4%. For `Cc1cccc(-c2nsc(SCC(=O)NCc3ccco3)n2)c1`, the activity change (PNC), negative = inhibition was inactive: -0.145%. With `COc1ccccc1-c1cc(C(=O)NCCc2ccccc2)no1` the activity change (PNC), negative = inhibition was inconclusive: -50.5%. In the case of `Cc1c(C#N)c(N=CN(C)C)c(C(=O)c2ccc(Br)cc2)n1-c1ccccc1`, the activity change (PNC), negative = inhibition is reported as inconclusive: -55%. With `CC1(CC(=O)O)C(=O)N=C2C=CC=CN21` (configuration not stated) the activity change (PNC), negative = inhibition was inconclusive: -68.6%. With `CCn1c(SCC(=O)Nc2nccs2)nnc1-c1ccc(C)cc1` the activity change (PNC), negative = inhibition was inconclusive: -45%. For `CC(C)CCN1C(=O)c2ccc(-c3nc4ccccc4c(=O)o3)cc2C1=O`, the activity change (PNC), negative = inhibition was inactive: 10.5%. In the case of `COc1cccc(C(=O)Oc2c(CN3CCOCC3)cc(Cl)c3cccnc23)c1`, the activity change (PNC), negative = inhibition is reported as inactive: 6.54%. With `CC(C)CC(=O)N1CCN(S(=O)(=O)c2ccc3ccccc3c2)CC1` the activity change (PNC), negative = inhibition was inactive: 7.63%. In the case of `Cn1c(=O)[nH]c(=O)c2c1nc(SCCN1CCOCC1)n2CCCc1ccccc1`, the activity change (PNC), negative = inhibition is reported as inconclusive: -32.1%. For `Cn1c(=O)n(C)c2cc(NC(=O)c3cc4ccccc4o3)ccc21`, the activity change (PNC), negative = inhibition was inconclusive: -41.2%. In the case of `CC(CCc1ccc(O)cc1)N(C)CCc1ccccc1` (configuration not stated), the activity change (PNC), negative = inhibition is reported as inconclusive: -32.1%. In the case of `Cc1[nH]c2ccccc2c1C(=O)CN1CCCCC1CCO` (configuration not stated), the activity change (PNC), negative = inhibition is reported as inactive: 6.7%. For `CN(C)S(=O)(=O)c1ccc(C(=O)Nc2ccccc2C(=O)O)cc1`, the activity change (PNC), negative = inhibition was inconclusive: -49.4%. For `COc1ccc(C2C3=C(Nc4ncnn42)c2ccccc2CC3)cc1OC` (configuration not stated), the activity change (PNC), negative = inhibition was inactive: 1.85%. With `C=CCNC(=S)Nc1ccccc1` the activity change (PNC), negative = inhibition was inconclusive: -51.2%. In the case of `C=CCn1c(CNc2ccc(C)cc2)nnc1SCC(=O)N/N=C/c1ccc(O)cc1`, the activity change (PNC), negative = inhibition is reported as inactive: 21.8%. For `OCC#Cc1cnc2ccccc2c1`, the activity change (PNC), negative = inhibition was inconclusive: -39.8%. In the case of `CN(C)c1ccc(NC(N)=S)cc1`, the activity change (PNC), negative = inhibition is reported as inconclusive: -45.3%. In the case of `CCSc1cc(N2CCCC2)nc(-c2cccc(C)c2)n1`, the activity change (PNC), negative = inhibition is reported as inconclusive: -65.4%. In the case of `Cc1ccc(NC(=S)Nc2ccc3nc(-c4ccccn4)c(-c4ccccn4)nc3c2)cc1C`, the activity change (PNC), negative = inhibition is reported as inconclusive: -36.4%.
